{
  "sequences": {"note": "Sequences of proteins named here, by UniProt entry; tags and fusion partners are left off.", "UniProt P19821, whole entry": "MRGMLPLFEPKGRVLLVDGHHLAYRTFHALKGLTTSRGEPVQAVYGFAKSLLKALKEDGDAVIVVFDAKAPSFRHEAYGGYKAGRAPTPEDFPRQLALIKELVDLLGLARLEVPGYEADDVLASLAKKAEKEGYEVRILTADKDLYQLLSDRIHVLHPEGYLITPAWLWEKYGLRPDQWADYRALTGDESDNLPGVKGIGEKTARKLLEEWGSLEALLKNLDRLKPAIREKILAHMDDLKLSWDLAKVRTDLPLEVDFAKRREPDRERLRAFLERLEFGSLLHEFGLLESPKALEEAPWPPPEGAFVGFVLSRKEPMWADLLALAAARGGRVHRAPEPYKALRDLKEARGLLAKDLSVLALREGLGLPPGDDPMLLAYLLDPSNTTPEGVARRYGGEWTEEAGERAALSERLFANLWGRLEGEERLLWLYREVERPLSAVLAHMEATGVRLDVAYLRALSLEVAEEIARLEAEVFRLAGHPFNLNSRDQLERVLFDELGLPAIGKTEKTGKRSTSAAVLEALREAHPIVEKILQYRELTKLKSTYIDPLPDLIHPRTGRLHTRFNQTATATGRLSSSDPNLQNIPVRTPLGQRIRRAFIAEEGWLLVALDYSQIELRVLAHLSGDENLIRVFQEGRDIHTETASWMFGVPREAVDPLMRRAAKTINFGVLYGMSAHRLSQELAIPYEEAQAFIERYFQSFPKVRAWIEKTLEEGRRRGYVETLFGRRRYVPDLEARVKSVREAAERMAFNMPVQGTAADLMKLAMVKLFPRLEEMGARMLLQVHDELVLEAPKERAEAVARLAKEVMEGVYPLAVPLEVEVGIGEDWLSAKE"},
  "source": "patent US20230074735",
  "target": "Taq DNA polymerase (Thermus aquaticus) (UniProt P19821)",
  "test": "inhibition of the protein",
  "conditions": "25 C, purified recombinant protein, protein details: New England Biolabs, single-stranded DNA, dose not given here",
  "note": "A negative result means that nothing was seen under these conditions.",
  "data": [
    {"sequence": "AAGACAATAGGAAGACAATGTACAGTATTGTCTGAAGTAGCGCCGCCGTATTGTCTTC [ON→ON switch (too weak locking)]", "values": [
      {"measurement": "functional effect of the aptamer", "setting": "rA at position 9, rest DNA, binding module disabled even before Pb2+ addition (dG -21.72 kcal/mol)", "value": "not active"}
    ]},
    {"sequence": "CGTAATACTGTACATTAGGAAGAGCTTTGCTCTGAAGTAGCGCCGCCGTAATGTACAGTATTACG [ON→ON switch (too strong unlocking)]", "values": [
      {"measurement": "functional effect of the aptamer", "setting": "rA at position 17, rest DNA, ON with and without Pb2+ (no activity change; too strong unlocking)", "value": "not active"}
    ]},
    {"sequence": "CTGTACATTGTAGGAAGAGCTTTGCTCTGAAGTAGCGCCGCCGTACAATGTACAGTATTGTACG [ON→OFF switch (optimal unlocking)]", "values": [
      {"measurement": "functional effect of the aptamer", "setting": "rA at position 12, rest DNA, no Pb2+: polymerase ON", "value": "not active"}
    ]},
    {"sequence": "GCGGCGTCACTATAGGAAGATCCAATGTACAGTATTGGATCTGAAGTAGCGCCGCCGTATAGTGACGCCGC [OFF→OFF switch (too strong locking)]", "values": [
      {"measurement": "functional effect of the aptamer", "setting": "rA at position 14, rest DNA, polymerase inhibited even with Pb2+ (too strong locking, dG -41.48 kcal/mol)", "value": "active"}
    ]}
  ]
}
